According to the supplement of paper PMC3741180, “A Novel High Throughput Biochemical Assay to Evaluate the HuR Protein-RNA Complex Formation” (PLoS ONE, 2013):
The list shows a part of the results. Single values are uncertain here, since repeats match poorly.

By UniProt entry, the sequences of proteins in these tests, tags left out.
UniProt Q15717, whole entry: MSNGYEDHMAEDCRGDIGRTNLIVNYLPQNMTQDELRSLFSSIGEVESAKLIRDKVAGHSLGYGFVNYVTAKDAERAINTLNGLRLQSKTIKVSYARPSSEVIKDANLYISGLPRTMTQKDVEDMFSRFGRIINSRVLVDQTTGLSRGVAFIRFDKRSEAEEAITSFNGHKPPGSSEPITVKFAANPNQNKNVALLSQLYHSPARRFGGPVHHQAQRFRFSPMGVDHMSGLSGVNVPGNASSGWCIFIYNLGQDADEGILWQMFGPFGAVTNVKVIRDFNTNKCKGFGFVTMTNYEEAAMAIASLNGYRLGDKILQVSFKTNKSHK

target: HuR (ELAVL1) - TNFalpha ARE RNA complex (UniProt Q15717); experiment: AlphaScreen HuR-RNA complex signal Z-score relative to positive (Bi-TNF, DMSO) controls (Z-score (SD units of positive control)); higher = more complex signal; conditions: screen stage: primary screen; compound concentration: 25 nM

SMILES | AlphaScreen HuR-RNA complex signal Z-score
Oc1ccc(Cl)c2cccnc12 | -2.85
Nc1c(Br)cc(Br)cc1CN[C@H]1CC[C@H](O)CC1 | 2.77
CC(C)(Sc1cc(C(C)(C)C)c(O)c(C(C)(C)C)c1)Sc1cc(C(C)(C)C)c(O)c(C(C)(C)C)c1 | 0.456
CC1(C)CCC[C@]2(C)[C@@H]3[C@H]1[C@@H](O)[C@@]2(C)C[C@H]3O | 1.71
COc1ccc(-c2c(O)c3c(OC)c4c(cc3oc2=O)OC(C)(C)C=C4)cc1 | 2.08
CC(=O)NO | 0.622
CN1CCCN=C1COC(=O)C(O)(c1ccccc1)C1CCCCC1 (configuration not stated) | 1.11
CC(C)(S)[C@@H](N)C(=O)O | 1.93
CO[C@H]1C[C@H](O[C@H]2[C@H](C)[C@@H](O[C@@H]3O[C@H](C)C[C@H](N(C)C)[C@H]3OC(C)=O)[C@@H](C)C[C@@]3(CO3)C(=O)[C@H](C)[C@@H](OC(C)=O)[C@@H](C)[C@@H](C)OC(=O)[C@@H]2C)O[C@@H](C)[C@@H]1OC(C)=O | 0.171
O=C(O)CCCN1C(=O)c2cccc3cccc(c23)C1=O | 2.21
COc1ccc(-c2oc3ccccc3c(=O)c2OC)cc1 | 0.301
COc1cc(C/C=C/c2ccccc2)c(OC)cc1O | 1.73
O=C1O[C@H](CO)[C@@H](O)[C@H](O)[C@H]1O | 1.37
C=C1C2CC[C@@]3(C)[C@H](c4ccoc4)OC(=O)C[C@]13O[C@H]1CC(O)C(C)(C)C(CC(=O)OC)[C@@]21C (stereo partly drawn) [3alpha-HYDROXY-3-DEOXYANGOLENSIC ACID METHYL ESTER] | 1.74
O=C(O)c1ccccc1Nc1ccccc1 | 1.33
COc1c(O)cc2c(-c3ccccc3)cc(=O)oc2c1OC | -4.89
CC(=O)O[C@H]1CC[C@]2(C)C3=C(CC[C@H]2C1(C)C)[C@]1(C)CC[C@H]([C@H](C)CCC=C(C)C)[C@@]1(C)CC3 | 1.79
CN1CCN(C2=Nc3cc(Cl)ccc3Nc3ccccc32)CC1 | -0.159
Clc1ccc(COC(Cn2ccnc2)c2ccc(Cl)cc2Cl)c(Cl)c1 (configuration not stated) | 4.64
Cc1cc(=O)n(-c2ccccc2)n1C | 0.315
NC12CC3CC(CC(C3)C1)C2 | 0.311
O=c1c2ccccc2oc2ccccc12 | 1.91
O=C(O)c1cc(O)c2c(c1)[C@@H]([C@H]1c3cc(C(=O)O)cc(O)c3C(=O)c3c(O[C@@H]4O[C@H](CO)[C@@H](O)[C@H](O)[C@H]4O)cccc31)c1cccc(O[C@@H]3O[C@H](CO)[C@@H](O)[C@H](O)[C@H]3O)c1C2=O | 3.1

SMILES | AlphaScreen HuR-RNA complex signal Z-score
N=C1C=CC(=C(c2ccc(N)cc2)c2ccc(N)cc2)C=C1 | 1.08
C=CC(C)(O)CCC1C(=C)CC(O)C2C(C)(C)CCCC12C (configuration not stated) | 0.457
CC(=O)N(O)CCCCCNC(=O)CCC(=O)N(O)CCCCCNC(=O)CCC(=O)N(O)CCCCCN | -6.25
CC(C)/N=c1\cc2n(-c3ccc(Cl)cc3)c3ccccc3nc-2cc1Nc1ccc(Cl)cc1 | 1.17
CCNC(=O)CC[C@H](N)C(=O)O | 1.93
NCCCCNCCCN | 1.84
CN1CC(=O)NC1=N | -0.173
CCC(NC(C)C)C(O)c1ccc(O)c(O)c1 (configuration not stated) | 2.27
CCC(Cc1c(I)cc(I)c(N)c1I)C(=O)O (configuration not stated) | 1.31
CN1CCc2cccc3c2[C@H]1Cc1ccc(O)c(O)c1-3 | 0.412
O=C1C=C2CC3(O)COc4c(ccc(O)c4O)C3=C2C=C1O (configuration not stated) | 1.27
C[C@]12CC[C@@H]3c4ccc(O)cc4CC[C@H]3[C@@H]1CC[C@@H]2OC(=O)CCC1CCCC1 | -1.83
CO[C@@]1(NC(=O)CSCC#N)C(=O)N2C(C(=O)O)=C(CSc3nnnn3C)CS[C@@H]21 | 0.258
C[C@@H]1[C@H](O)[C@@H](C)/C=C/C=C/C=C/C=C/C=C/C=C/C=C/[C@H](O[C@@H]2O[C@H](C)[C@@H](O)[C@H](N)[C@@H]2O)C[C@@H]2O[C@](O)(C[C@@H](O)C[C@@H](O)[C@H](O)CC[C@@H](O)C[C@@H](O)CC(=O)O[C@H]1C)C[C@H](O)[C@H]2C(=O)O | 0.719
CCOC(=O)C(C)(C)Oc1ccc(Cl)cc1 | 0.088
CCN(CCO)CCCC(C)Nc1ccnc2cc(Cl)ccc12 (configuration not stated) | 1.2
CON | 2.42
O=c1ccn([C@@H]2O[C@H](COP(=O)(O)OP(=O)(O)OP(=O)(O)O)[C@@H](O)[C@H]2O)c(=O)[nH]1 | 2.96
CN(C)c1ccc(C(=C2C=CC(=[N+](C)C)C=C2)c2ccc(N(C)C)cc2)cc1 | -5.07
CC(=O)[C@H]1CC[C@H]2[C@@H]3CC=C4C[C@@H](O)CC[C@]4(C)[C@H]3CC[C@]12C | 2.03
CC12CCCC(O)(C1)C1CC(C)(C)C1CC2 (stereo not drawn) [beta-CARYOPHYLLENE ALCOHOL] | 3.95
CC(C)(C)c1ccc(C(O)CCCN2CCC(C(O)(c3ccccc3)c3ccccc3)CC2)cc1 (configuration not stated) | -0.00224
CC(COc1ccccc1)NC(C)C(O)c1ccc(O)cc1 (configuration not stated) | -5.37

Reformatted with each value named: entries from further up
O=C1C=C2CC3(O)COc4c(ccc(O)c4O)C3=C2C=C1O (configuration not stated)
  AlphaScreen HuR-RNA complex signal Z-score: 1.27
CCOC(=O)C(C)(C)Oc1ccc(Cl)cc1
  AlphaScreen HuR-RNA complex signal Z-score: 0.088
CC12CCCC(O)(C1)C1CC(C)(C)C1CC2 (stereo not drawn) [beta-CARYOPHYLLENE ALCOHOL]
  AlphaScreen HuR-RNA complex signal Z-score: 3.95

An excerpt of the results above, as a working copy:
SMILES | AlphaScreen HuR-RNA complex signal Z-score
CO[C@@]1(NC(=O)CSCC#N)C(=O)N2C(C(=O)O)=C(CSc3nnnn3C)CS[C@@H]21 | 0.258
C[C@@H]1[C@H](O)[C@@H](C)/C=C/C=C/C=C/C=C/C=C/C=C/C=C/[C@H](O[C@@H]2O[C@H](C)[C@@H](O)[C@H](N)[C@@H]2O)C[C@@H]2O[C@](O)(C[C@@H](O)C[C@@H](O)[C@H](O)CC[C@@H](O)C[C@@H](O)CC(=O)O[C@H]1C)C[C@H](O)[C@H]2C(=O)O | 0.719

The listing continues.

SMILES | AlphaScreen HuR-RNA complex signal Z-score
Cc1cc(=O)oc2c(O)c(O)ccc12 | 1.19
CC1(C)[C@@H](O)CC[C@]2(C)[C@H]3C(=O)C=C4[C@H]5C[C@@](C)(C(=O)O)CC[C@]5(C)CC[C@@]4(C)[C@]3(C)CC[C@@H]12 [18alpha-GLYCYRRHETINIC ACID] | 0.792
CCCCN1CCCCC1C(=O)Nc1c(C)cccc1C (configuration not stated) | 1.63
CCOC(=O)NNc1nncc2ccccc12 | 2.29
CC(=O)c1c(O)cc(O)cc1O | 2.7
CC(=O)O[C@@H]1CC2C(C)(CC[C@H](O)C2(C)C)C2CC[C@]3(C)C(=CC(=O)O[C@H]3c3ccoc3)C21C (stereo partly drawn) [3beta-HYDROXYDEOXODIHYDRODEOXYGEDUNIN] | 1.07
CC(=O)N[C@@H](C=O)[C@@H](O)[C@H](O)[C@H](O)CO | 0.752
Nc1ccc(S(=O)(=O)Nc2ccccn2)cc1 | 2.16
CO[C@H]1C[C@H](O[C@H]2[C@H](C)[C@@H](O[C@@H]3O[C@H](C)C[C@H](N(C)C)[C@H]3O)[C@@H](C)C[C@@]3(CO3)C(=O)[C@H](C)[C@@H](O)[C@@H](C)[C@@H](C)OC(=O)[C@@H]2C)O[C@@H](C)[C@@H]1O | -0.475
OC[C@H]1O[C@H](OCC2O[C@@H](O)[C@H](O)[C@@H](O)[C@@H]2O)[C@H](O)[C@@H](O)[C@H]1O (some centres not stated) | 1.42
Nc1ccn([C@@H]2O[C@H](CO)[C@@H](O)[C@@H]2O)c(=O)n1 | -2.84
COc1ccnc(C[S+]([O-])c2nc3cc(OC(F)F)ccc3[nH]2)c1OC (configuration not stated) | 3.29
O=C(O)[C@H](O)[C@@](O)(Cc1ccc(O)cc1)C(=O)O | 2.02
C/C(=C\CO)CC[C@H](C)CCC[C@H](C)CCCC(C)C | 1.94
O=c1ccc2ccccc2o1 | 0.719
NCCOB(c1ccccc1)c1ccccc1 | 2.19
CC1(C)C=Cc2cc3ccc(=O)oc3cc2O1 | 1.97
CN(C)CCCN1c2ccccc2Sc2ccc(Cl)cc21 | -3.19
CCOC(=O)c1c(C)cc(O)cc1O | 1
O=c1[nH]cnc2c1ncn2[C@@H]1O[C@H](CO)[C@@H](O)[C@H]1O | 0.875
CCCCOc1cc(CC2CNC(=O)N2)ccc1OC (configuration not stated) | 1.88
CC(C)Cn1c(=O)n(C)c(=O)c2[nH]cnc21 | 1.52
COc1cc([C@@H]2c3cc4c(cc3[C@@H](O[C@@H]3O[C@@H]5CO[C@@H](c6cccs6)O[C@H]5[C@H](O)[C@H]3O)[C@H]3COC(=O)[C@H]23)OCO4)cc(OC)c1O | 0.909

SMILES | AlphaScreen HuR-RNA complex signal Z-score
COc1cc(OC)c2c(=O)c(-c3ccc4c(c3)OCO4)coc2c1 | 2.15
CCOc1ccc2nc3cc(N)ccc3c(N)c2c1 | 2.7
CCN(CC)CCNc1ccc(CO)c2sc3ccccc3c(=O)c12 | 1.69
O=c1c(O)cc([C@H]2Oc3cc(O)cc(O)c3C[C@H]2O)cc2c([C@H]3Oc4cc(O)cc(O)c4C[C@H]3O)cc(O)c(O)c12 | 2.09
O=C(COc1ccc(Cl)cc1)N1CCN(Cc2ccc3c(c2)OCO3)CC1 | 0.163
Cc1ccsc1/C=C/C1=NCCCN1C | 1.13
CCCCCCCCCCCCCCCCOP(=O)([O-])OCC[N+](C)(C)C | 0.93
CN(C)c1ccc(O)c2c1C[C@H]1C[C@H]3[C@H](N(C)C)C(O)=C(C(N)=O)C(=O)[C@@]3(O)C(O)=C1C2=O | 1.55
CC(C)CCCC(C)C1CCC2C3=CCC4CC(O)CCC4(C)C3CCC21C (configuration not stated) | 1.78
COc1cccc(OC)c1C(=O)N[C@@H]1C(=O)N2[C@@H]1SC(C)(C)[C@@H]2C(=O)O | 0.439
Cc1ccc(S(=O)(=O)NC(=O)NN2CCCCCC2)cc1 | 1.38
CC(C)(C)CC(C)(C)c1ccc(O)c(Cc2ccc(Cl)cc2Cl)c1 | 2.69
C[C@H]1[C@H](C)CC[C@]2(C(=O)O)CC[C@]3(C)C(=CC[C@@H]4[C@@]5(C)C[C@@H](O)[C@H](O)[C@@](C)(CO)[C@@H]5CC[C@]43C)[C@H]12 | 1.18
CCOC(=O)c1ccc(N)cc1 | 0.0241
CCN(CC)CCOC(=O)C(c1ccccc1)c1ccccc1 | 0.338
COC(=O)[C@@H]1OC(=O)[C@H]2O[C@@]23[C@@]1(C)CCC1[C@@]2(C)CCC(=O)C(C)(C)C2C[C@@H](OC(C)=O)[C@]13C (some centres not stated) | 1.61
CCCCC1(COC(=O)CCC(=O)O)C(=O)N(c2ccccc2)N(c2ccccc2)C1=O | 1.5
COc1cc(NC(C)CCCN)c2ncccc2c1 (configuration not stated) | 16.8
COC1(C)CCC2OC2(C)CCC2C1CC2(C)C (configuration not stated) | 1.64
CN(C)[C@@H]1C(O)=C(C(N)=O)C(=O)[C@@]2(O)C(O)=C3C(=O)c4c(O)cccc4[C@@](C)(O)[C@H]3[C@H](O)[C@@H]12 | 5.31
CC(=O)NCCc1ccc(O)c(-c2c(O)c(O)c3c(c2O)C(=O)c2c(cc(O)c(C(=O)O)c2C(=O)O)C3=O)c1 | -0.449
CC1=C(/C=C/C(C)=C/C=C/C(C)=C\C(=O)O)C(C)(C)CCC1 | 2.48
CC/C(=C(/CC)c1ccc(O)cc1)c1ccc(O)cc1 | -3.4
